A: 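Whole-cell assay for inhibitors of Mycobacterium tuberculosis growth, labelled Cornell in the record; the read-out is not stated. The concentration is filed as 10 mM, unlikely as a test dose, so the dose is not known. The record gives no direction; compounds strong in two other growth screens of this library score well above the rest, so higher reads as stronger inhibition. Size under these conditions: about 53,000 compounds, about 900 of them at 50% or above in at least one test.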
B: 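Assay on Mycobacterium tuberculosis, filed only as a heat shock assay from Cornell; the read-out is not stated. The concentration is filed as 10 mM, unlikely as a test dose, so the dose is not known. Direction is inferred from retests: higher values go with stronger inhibition. Of about 69,000 compounds tested this way, about 930 (1.4%) reached 50% or more in at least one test.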

Each number is a percent effect as filed.
The record does not define 0% and 100%; most values in the screen are far below 50% and negative numbers occur (in some assays of this library far below -100).
This is an unselected part of the compounds tested.
A dash means the value is not listed here; it may have been measured.

compound	A	B
CCc1noc(CC)c1CC(=O)N1CCN(C(C#N)C(C)C)CC1 (stereo not given)	-0.5104%	-5.4%
O=C(O)C(F)(F)F.[H][C@@]12CCN(c3ncc(F)cn3)[C@]1([H])CC[C@@H](C(=O)NCCOC)O2	19.6%	-5.003%
COc1ccc(NC(=O)C2OC(c3cccs3)=NN2C(C)=O)cc1OC (stereo not given)	11.86%	54.99%
CCN(C)CC1CCN(C(=O)Nc2ccc(C)cc2)C1 (stereo not given)	-	-10.24%
CC(C)c1cc(CN(C)C(=O)CN2CCC(C(N)=O)CC2)no1	18.55%	0.07069%
Cc1cnn(C2CCCN(C(=O)c3cn4cccnc4n3)C2)c1 (stereo not given)	-0.1027%	-7.08%
c1cc(NC2CC3(CCN(Cc4cc[nH]n4)C3)C2)ncn1 (stereo not given)	1.485%	-7.227%
CC(=O)N1CCCN(C(=O)NCC2(c3cccs3)CCCC2)CC1	20.5%	-4.083%
Cn1ncnc1-c1ccnc(N2CCC(C(O)c3cccs3)CC2)n1 (stereo not given)	30.21%	-19.23%
CC(C)(C)n1nnnc1CN(Cc1ccccc1)Cc1ccccc1Cl	7.141%	8.515%
Cc1cc(C)cc(OCCN(C)Cc2ccc(S(=O)(=O)N(C)C)o2)c1	-13.48%	9.417%
COc1cccc(-c2cc(C(=O)NCCCn3cnnc3)[nH]n2)c1	3.999%	-6.432%
CC(C)Oc1cc(N2C[C@@H](C)O[C@@H](C)C2)nc(N)n1	-	-7.677%
O=C(O)C(F)(F)F.O=C(O)C(F)(F)F.[H][C@@]12C[C@@H](C(=O)NC(C)C)C[C@@]1([H])N(Cc1ccccn1)CCO2	14.41%	0.2001%
CC(=O)N1CCC(c2ccnc(Nc3cncnc3)n2)CC1	3.229%	-4.661%
C1CCCN(c2nc(C3CC3)ns2)CC1	-21.9%	-15.9%
O=C(Nc1ccc(F)cc1)C1CSCN1 (stereo not given)	24.92%	55.12%
Cc1cc(C)n(CC2CN(Cc3nc(C)c(C)o3)CCO2)n1 (stereo not given)	-	5.683%
Cc1noc(C)c1CCC(=O)N1CCN(CCn2cccn2)CC1	-19.45%	-5.618%
CC(C)OC(=O)N1CCC(Cc2ccc(C(=O)O)cc2)C1 (stereo not given)	-	-0.5077%
Nc1cc2c(nn1)CCN(C(=O)CCc1ccc3c(c1)OCO3)C2	-28.05%	-16.4%
CCc1noc(CNc2cccc(C(=O)N3CCSCC3)c2)n1	-51.85%	0.08871%
COc1ccc2c(c1)C1(CCN(Cc3cccnc3)CC1)N(C)CC2.O=C(O)C(F)(F)F.O=C(O)C(F)(F)F.O=C(O)C(F)(F)F	-4.44%	-21.75%
CSCC(C)NCc1ccc2[nH]c(C)c(C)c2c1 (stereo not given)	-32.91%	-4.297%
CC1(C)OCC(CNC(=O)c2cnn(-c3cc(Cl)ccc3Cl)c2N)O1 (stereo not given)	-	-7.756%
COc1ccc(COCC(O)CNC(=O)c2cnc(C)cn2)cc1 (stereo not given)	-	-9.73%
COc1ccc(C)cc1CN(Cc1nc(C)c(C)o1)C1CCN(C)C1 (stereo not given)	-	4.198%
c1ccc2sc(N3CCCC4(CCOC4)C3)nc2c1 (stereo not given)	-	-19.48%
CCC(CC)c1cc(CNC(=O)N2CCCC(c3ncc[nH]3)C2)on1 (stereo not given)	-	-25.17%
Cc1cnn(CCNCc2nc(CNC(=O)c3ccccc3)no2)c1	-	-23.33%
NCc1cnn(-c2ccccc2C(=O)NCc2ccccn2)c1	-10.58%	23.79%
O=C(CCNc1ncccn1)N1CCCN(c2nccs2)CC1	-	-11.96%
NC(=O)COc1ccc(C2NC(=O)CN2Cc2ccc(Br)cc2)cc1 (stereo not given)	5.966%	18.64%
COc1ccc(C2=CCN(C(=O)C3CC(=O)N(C4CC4)C3)CC2)cc1 (stereo not given)	29.19%	4.913%
Cl.OC[C@H]1CC[C@]2(CC1)CN(Cc1ccccn1)Cc1ccccc1O2	7.285%	3.822%
CCCOC1CCCN(C(=O)c2ccnc(N3CCN(C)CC3)c2)C1 (stereo not given)	-1.05%	-10.24%
O=C(O)C(F)(F)F.O=C(O)C(F)(F)F.O=C(O)C(F)(F)F.c1coc(CN2CCC3(CC2)COCCN(CCN2CCCC2)C3)c1	22.5%	7.15%
Cc1cc(NC(=O)CN2CCCC2Cn2nc(C)nc2C)n(C)n1 (stereo not given)	-1.658%	-5.058%
O=C(O)C(F)(F)F.[H][C@@]12CN(CCOC)CCO[C@]1([H])CN(C(=O)COc1ccc(C)cc1)C2	19.39%	-28.72%
CC(Cc1ccco1)NC(=O)Nc1cccnc1 (stereo not given)	-	4.564%
Cc1nccn1-c1ccc(C(C)Nc2cnn(C)c(=O)c2Cl)cc1 (stereo not given)	20.11%	-20.1%
Cn1cccc1C(=O)N1CCC2(CC1)CN(c1cncnc1)C(=O)CO2	-	-23.36%
CCC(C)CS(=O)(=O)NC(=O)C1CCC1 (stereo not given)	-27%	-14.04%
Cc1cc(Br)ccc1NCc1ccc(C(=O)N(C)C)[nH]1	-	-9.474%
CCc1noc(C(C)N2CCN(C(=O)CN3CCOCC3)CC2)n1 (stereo not given)	-3.245%	0.2933%
CC(C)C(O)C1(CNC(=O)Nc2ccc(CN3CCOC3=O)cc2)CC1 (stereo not given)	8.797%	6.621%
N#Cc1cc(N2CCC(S(N)(=O)=O)CC2)c2ccccc2n1	29.04%	7.253%
CC1CCc2n[nH]c(C(=O)NCCc3ccco3)c2C1 (stereo not given)	29.62%	25.36%
O=C(O)C(F)(F)F.[H][C@]12CCN(C(=O)NCc3cccnc3)C[C@@]1([H])OCCN(C(C)=O)C2	10.59%	-3.847%
Cc1ccc2cc(C(=O)N3CCN(C(=O)c4ccoc4)CC3)[nH]c2c1	36.79%	-23.9%
CCc1cnc(CNC(=O)N2CCCC(C(=O)NC)C2)s1 (stereo not given)	-31.11%	-10.97%
O=C(O)C(F)(F)F.c1ccc(CN2Cc3nccn3CC(Cn3cncn3)C2)nc1 (stereo not given)	21.21%	-29.71%
Cc1ccsc1C(O)CNC(=O)Cc1ccc(S(=O)(=O)C(C)C)cc1 (stereo not given)	-3.815%	2.297%
O=S(=O)(Cc1ccccc1CN1CCOCC(O)C1)c1ccccc1 (stereo not given)	-11.83%	-19.69%
COc1ncc(C2(O)CCN(Cc3ccc(F)c(F)c3)CC2)c(OC)n1.Cl	-	2.429%
Cc1nn(CCC(=O)NC(C(=O)O)c2c(C)n[nH]c2C)c(C)c1C (stereo not given)	-	5.067%
COc1ccc(CN2Cc3cnn(C)c3C(COCC3CC3)C2)cc1 (stereo not given)	13.23%	10.45%
O=C(O)c1ccn(-c2ccccc2NS(=O)(=O)c2cccc(Cl)c2F)n1	33.35%	-21.19%
[H][C@]12CCN(C(=O)NCCc3ccccc3)CC[C@@]1([H])S(=O)(=O)NC2	9.184%	-1.437%
O=C(C1CC1)N1CCC2(CC1)CNCCO2	-13.68%	6.884%
Cc1nnc(C(C)N2CCN(Cc3ccc(C(F)(F)F)cc3)CC2)o1 (stereo not given)	-5.477%	-10.75%
Cc1csc2c(N3CCNC(C(=O)N4CCCC4)C3)ncnc12 (stereo not given)	-74.62%	31.93%

The last 7 entries again:

compound,A,B
Cc1nn(CCC(=O)NC(C(=O)O)c2c(C)n[nH]c2C)c(C)c1C (stereo not given),-,5.067%
COc1ccc(CN2Cc3cnn(C)c3C(COCC3CC3)C2)cc1 (stereo not given),13.23%,10.45%
O=C(O)c1ccn(-c2ccccc2NS(=O)(=O)c2cccc(Cl)c2F)n1,33.35%,-21.19%
[H][C@]12CCN(C(=O)NCCc3ccccc3)CC[C@@]1([H])S(=O)(=O)NC2,9.184%,-1.437%
O=C(C1CC1)N1CCC2(CC1)CNCCO2,-13.68%,6.884%
Cc1nnc(C(C)N2CCN(Cc3ccc(C(F)(F)F)cc3)CC2)o1 (stereo not given),-5.477%,-10.75%
Cc1csc2c(N3CCNC(C(=O)N4CCCC4)C3)ncnc12 (stereo not given),-74.62%,31.93%

Measurements from “University of Dundee, Small-Polar-MMV Screening Library” (2021), ChEMBL document CHEMBL3988442.